The other results are listed elsewhere or left out. The calls rarely recur for the same compound in another form.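 Kinases were expressed as nanoluciferase fusions in K562 cells and luminescence was read every 4 h between 2 and 18 h as percent of control, DMSO set to 100% and a positive control to 0%. A time point counts as decreased when the signal drops significantly (2 sigma). The hit call is the authors' own, does not follow from the count of time points alone, and its rule is not shown.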
Experiments:
Conditions in all cases: K562; 2-18 h
STK38 = STK38 (UniProt Q15208); experiment: kinase-Nluc reporter destabilization hit call (1 = scored as downregulated) (binary); higher = compound decreases kinase abundance
SYK = SYK (UniProt P43405); experiment: as above
TEC = TEC (UniProt P42680); experiment: as above
TYK2 = TYK2 (UniProt P29597); experiment: as above
ULK3 = ULK3 (UniProt Q6PHR2); experiment: as above
YES1 = YES1 (UniProt P07947); experiment: as above
ZAK = ZAK (UniProt Q9NYL2); experiment: as above
ZAP70 = ZAP70 (UniProt P43403); experiment: as above
ABL1 = ABL1 (UniProt P00519); experiment: number of time points (of 5) at which kinase-Nluc abundance scored as decreased, DMSO-normalised (count); higher = more persistent destabilization
AKT1 = AKT1 (UniProt P31749); experiment: as above
ALK = ALK (UniProt Q9UM73); experiment: as above
ARAF = ARAF (UniProt P10398); experiment: as above
AURKA = AURKA (UniProt O14965); experiment: as above
AURKB = AURKB (UniProt Q96GD4); experiment: as above
AURKC = AURKC (UniProt Q9UQB9); experiment: as above
BLK = BLK (UniProt P51451); experiment: as above
BMX = BMX (UniProt P51813); experiment: as above
BRAF = BRAF (UniProt P15056); experiment: as above
BRAF_V600E = experiment: as above
BTK = BTK (UniProt Q06187); experiment: as above

By UniProt entry, the sequences of proteins in these tests, tags left out. Where a name states a change or a piece, a line headed by the entry shows the natural chain unless it says otherwise.
UniProt Q15208: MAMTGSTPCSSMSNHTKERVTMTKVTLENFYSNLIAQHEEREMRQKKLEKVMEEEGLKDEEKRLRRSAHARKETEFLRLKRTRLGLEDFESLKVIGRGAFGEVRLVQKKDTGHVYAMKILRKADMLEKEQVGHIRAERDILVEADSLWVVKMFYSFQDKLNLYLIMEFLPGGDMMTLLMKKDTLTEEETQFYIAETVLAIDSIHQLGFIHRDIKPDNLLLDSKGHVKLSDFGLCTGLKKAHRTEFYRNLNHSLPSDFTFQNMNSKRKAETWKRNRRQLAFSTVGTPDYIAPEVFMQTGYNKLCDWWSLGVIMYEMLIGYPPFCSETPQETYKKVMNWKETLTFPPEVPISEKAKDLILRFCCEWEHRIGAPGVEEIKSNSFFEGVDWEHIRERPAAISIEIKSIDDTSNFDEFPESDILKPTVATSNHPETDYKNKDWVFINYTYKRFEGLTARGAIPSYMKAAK
UniProt P42680: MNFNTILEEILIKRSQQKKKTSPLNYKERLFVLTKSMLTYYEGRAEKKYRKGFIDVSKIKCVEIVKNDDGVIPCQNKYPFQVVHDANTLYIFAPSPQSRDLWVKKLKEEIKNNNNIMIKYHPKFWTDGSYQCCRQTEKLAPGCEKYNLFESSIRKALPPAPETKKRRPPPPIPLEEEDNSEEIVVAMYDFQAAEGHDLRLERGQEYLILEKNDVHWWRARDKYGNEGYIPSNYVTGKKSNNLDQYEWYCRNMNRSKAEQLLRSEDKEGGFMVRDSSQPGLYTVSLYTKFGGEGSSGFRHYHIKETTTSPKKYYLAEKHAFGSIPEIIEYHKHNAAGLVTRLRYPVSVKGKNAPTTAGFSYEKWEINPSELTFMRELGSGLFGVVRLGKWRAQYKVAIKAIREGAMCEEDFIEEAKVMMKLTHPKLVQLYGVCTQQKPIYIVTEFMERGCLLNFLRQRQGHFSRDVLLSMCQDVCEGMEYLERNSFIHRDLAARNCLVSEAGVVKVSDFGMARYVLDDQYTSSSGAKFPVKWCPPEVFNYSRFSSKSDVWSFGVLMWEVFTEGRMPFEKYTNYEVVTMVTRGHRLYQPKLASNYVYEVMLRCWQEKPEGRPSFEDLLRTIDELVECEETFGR
UniProt P07947, whole entry, looked up: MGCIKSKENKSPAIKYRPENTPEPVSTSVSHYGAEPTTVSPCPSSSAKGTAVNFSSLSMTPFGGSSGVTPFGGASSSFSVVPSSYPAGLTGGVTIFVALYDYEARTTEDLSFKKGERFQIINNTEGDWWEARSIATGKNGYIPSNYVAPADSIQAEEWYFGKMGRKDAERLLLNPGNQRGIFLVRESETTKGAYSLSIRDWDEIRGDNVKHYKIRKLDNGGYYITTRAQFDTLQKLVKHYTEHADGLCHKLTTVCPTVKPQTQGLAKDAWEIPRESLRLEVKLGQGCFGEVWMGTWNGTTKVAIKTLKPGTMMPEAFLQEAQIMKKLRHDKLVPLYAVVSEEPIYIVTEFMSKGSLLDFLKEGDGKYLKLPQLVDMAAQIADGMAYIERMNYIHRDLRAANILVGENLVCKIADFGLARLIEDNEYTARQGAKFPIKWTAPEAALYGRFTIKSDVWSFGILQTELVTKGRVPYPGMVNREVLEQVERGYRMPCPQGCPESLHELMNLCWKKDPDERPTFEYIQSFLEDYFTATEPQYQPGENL
UniProt P43403: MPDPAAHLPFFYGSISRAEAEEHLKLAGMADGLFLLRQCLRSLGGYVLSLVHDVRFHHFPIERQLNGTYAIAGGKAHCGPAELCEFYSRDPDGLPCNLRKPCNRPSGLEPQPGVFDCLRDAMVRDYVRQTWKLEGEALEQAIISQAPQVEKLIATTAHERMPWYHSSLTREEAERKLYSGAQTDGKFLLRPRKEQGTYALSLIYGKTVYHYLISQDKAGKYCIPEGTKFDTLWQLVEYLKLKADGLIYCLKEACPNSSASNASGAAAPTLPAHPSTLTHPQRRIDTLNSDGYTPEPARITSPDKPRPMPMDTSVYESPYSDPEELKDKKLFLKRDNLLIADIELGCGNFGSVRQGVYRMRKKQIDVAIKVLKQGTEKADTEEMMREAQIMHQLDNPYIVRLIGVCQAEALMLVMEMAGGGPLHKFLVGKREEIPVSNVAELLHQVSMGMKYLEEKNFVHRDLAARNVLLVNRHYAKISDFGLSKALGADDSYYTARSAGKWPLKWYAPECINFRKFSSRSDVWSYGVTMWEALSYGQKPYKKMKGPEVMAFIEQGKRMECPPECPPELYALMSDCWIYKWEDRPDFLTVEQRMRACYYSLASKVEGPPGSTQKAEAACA
UniProt P00519, whole entry: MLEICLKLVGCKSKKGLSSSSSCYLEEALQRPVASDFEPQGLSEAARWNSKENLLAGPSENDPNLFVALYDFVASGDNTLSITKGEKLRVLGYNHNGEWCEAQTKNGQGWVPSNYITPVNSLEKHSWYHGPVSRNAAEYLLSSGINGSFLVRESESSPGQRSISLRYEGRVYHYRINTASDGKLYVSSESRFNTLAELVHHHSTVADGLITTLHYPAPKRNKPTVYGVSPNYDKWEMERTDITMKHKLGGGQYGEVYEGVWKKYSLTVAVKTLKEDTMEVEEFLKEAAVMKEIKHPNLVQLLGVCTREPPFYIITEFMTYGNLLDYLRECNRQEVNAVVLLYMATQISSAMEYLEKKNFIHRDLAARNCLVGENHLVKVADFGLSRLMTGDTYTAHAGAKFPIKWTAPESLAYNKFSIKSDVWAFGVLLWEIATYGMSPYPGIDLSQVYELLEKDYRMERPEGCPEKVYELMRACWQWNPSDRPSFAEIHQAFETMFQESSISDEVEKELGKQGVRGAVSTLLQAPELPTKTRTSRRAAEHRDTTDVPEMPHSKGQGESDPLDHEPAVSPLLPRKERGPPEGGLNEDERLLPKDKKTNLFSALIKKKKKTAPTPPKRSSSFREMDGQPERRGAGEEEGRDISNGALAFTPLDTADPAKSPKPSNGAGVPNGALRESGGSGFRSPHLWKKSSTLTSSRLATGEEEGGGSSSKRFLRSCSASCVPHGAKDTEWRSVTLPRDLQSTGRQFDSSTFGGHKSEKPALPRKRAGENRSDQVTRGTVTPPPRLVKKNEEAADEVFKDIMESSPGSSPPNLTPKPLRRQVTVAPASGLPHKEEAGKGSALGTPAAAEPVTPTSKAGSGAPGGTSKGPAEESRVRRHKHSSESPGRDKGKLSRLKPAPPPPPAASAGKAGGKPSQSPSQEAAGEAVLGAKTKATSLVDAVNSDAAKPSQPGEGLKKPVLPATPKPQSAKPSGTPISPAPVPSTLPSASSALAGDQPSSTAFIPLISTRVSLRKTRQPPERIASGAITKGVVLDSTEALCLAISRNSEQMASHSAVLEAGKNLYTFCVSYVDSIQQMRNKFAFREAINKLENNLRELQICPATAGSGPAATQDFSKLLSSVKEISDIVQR
UniProt P31749: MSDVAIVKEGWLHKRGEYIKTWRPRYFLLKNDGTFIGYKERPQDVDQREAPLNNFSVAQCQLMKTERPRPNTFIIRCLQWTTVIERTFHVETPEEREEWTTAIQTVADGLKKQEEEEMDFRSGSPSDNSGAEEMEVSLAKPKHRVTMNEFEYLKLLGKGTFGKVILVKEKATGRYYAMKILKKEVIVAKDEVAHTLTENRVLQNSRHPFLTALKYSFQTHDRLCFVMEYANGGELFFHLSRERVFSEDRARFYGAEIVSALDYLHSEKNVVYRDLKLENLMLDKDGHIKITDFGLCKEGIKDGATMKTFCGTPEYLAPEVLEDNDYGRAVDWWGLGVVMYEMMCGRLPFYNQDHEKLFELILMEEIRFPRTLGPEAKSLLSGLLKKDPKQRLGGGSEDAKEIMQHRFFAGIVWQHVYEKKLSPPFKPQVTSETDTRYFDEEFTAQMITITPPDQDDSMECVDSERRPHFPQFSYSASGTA
UniProt P10398: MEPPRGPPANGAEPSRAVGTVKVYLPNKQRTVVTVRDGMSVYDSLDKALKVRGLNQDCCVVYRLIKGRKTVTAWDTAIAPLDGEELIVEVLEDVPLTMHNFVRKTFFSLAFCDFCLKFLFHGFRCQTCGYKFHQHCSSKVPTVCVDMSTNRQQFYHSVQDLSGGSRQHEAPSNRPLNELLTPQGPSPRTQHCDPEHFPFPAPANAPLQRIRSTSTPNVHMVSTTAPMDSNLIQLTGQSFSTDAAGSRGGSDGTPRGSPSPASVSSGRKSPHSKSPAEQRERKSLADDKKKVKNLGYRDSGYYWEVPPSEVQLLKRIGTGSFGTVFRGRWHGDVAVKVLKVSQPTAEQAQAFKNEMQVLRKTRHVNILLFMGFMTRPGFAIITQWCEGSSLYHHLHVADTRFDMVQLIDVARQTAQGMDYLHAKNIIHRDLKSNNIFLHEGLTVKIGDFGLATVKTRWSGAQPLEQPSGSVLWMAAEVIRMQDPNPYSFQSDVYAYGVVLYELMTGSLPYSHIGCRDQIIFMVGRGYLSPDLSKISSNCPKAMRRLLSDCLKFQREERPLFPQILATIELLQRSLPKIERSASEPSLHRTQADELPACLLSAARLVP
UniProt O14965: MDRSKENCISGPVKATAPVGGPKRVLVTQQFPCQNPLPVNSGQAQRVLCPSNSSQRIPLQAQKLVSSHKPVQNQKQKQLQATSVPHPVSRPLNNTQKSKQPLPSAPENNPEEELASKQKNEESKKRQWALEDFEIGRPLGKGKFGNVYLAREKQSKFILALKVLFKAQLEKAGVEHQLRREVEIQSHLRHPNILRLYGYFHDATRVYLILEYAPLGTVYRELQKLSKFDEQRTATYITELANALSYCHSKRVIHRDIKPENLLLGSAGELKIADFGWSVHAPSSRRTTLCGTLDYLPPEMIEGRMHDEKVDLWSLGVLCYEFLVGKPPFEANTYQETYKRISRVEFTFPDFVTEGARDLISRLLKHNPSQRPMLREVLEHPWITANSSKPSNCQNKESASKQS
UniProt Q96GD4, whole entry: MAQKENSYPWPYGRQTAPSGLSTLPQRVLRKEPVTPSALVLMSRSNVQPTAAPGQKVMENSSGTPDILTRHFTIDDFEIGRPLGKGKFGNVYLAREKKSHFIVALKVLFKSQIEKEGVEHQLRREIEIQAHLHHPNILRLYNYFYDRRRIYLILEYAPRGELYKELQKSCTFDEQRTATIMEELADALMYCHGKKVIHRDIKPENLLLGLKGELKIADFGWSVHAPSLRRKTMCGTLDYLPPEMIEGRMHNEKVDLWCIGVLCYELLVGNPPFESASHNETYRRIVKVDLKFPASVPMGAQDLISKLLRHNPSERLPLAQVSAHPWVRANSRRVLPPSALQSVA
UniProt P51813: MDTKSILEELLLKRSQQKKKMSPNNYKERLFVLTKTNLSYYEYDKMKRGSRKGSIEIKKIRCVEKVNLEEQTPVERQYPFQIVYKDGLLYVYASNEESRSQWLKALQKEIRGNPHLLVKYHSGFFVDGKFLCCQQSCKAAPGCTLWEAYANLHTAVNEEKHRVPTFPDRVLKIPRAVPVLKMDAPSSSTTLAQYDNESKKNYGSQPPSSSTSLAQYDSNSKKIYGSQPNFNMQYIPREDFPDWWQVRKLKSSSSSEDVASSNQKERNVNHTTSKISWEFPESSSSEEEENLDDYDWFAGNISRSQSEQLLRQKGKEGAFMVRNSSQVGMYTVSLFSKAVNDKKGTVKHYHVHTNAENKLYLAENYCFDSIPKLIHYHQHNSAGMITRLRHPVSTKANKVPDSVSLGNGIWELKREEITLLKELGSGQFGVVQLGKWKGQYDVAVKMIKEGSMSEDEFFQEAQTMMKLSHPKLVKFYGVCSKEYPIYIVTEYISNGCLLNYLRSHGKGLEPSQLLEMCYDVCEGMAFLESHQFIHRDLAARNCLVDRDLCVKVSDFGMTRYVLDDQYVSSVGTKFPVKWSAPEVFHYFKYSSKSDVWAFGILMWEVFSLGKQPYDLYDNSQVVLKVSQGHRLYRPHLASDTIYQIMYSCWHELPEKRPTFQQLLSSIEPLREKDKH
UniProt Q06187: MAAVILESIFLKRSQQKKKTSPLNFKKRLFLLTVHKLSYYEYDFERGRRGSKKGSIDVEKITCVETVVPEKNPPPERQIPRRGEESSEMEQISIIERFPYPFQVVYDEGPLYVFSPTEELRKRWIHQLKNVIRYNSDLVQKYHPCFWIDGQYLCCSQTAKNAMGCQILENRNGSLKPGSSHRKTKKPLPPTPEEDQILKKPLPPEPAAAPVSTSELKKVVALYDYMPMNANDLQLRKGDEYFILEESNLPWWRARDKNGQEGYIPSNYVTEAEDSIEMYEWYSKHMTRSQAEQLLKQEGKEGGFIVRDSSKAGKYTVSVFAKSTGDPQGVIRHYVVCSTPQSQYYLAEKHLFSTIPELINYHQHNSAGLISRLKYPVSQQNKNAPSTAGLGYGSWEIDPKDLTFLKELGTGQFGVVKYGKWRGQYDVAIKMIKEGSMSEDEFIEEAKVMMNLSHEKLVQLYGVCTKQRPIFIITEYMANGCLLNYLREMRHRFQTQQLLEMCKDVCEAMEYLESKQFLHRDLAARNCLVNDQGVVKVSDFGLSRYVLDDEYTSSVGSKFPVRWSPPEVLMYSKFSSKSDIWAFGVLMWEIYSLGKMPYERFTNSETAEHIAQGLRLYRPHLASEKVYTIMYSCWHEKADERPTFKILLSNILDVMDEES

| Compound | kinase-Nluc reporter destabilization hit call (STK38) | kinase-Nluc reporter destabilization hit call (SYK) | kinase-Nluc reporter destabilization hit call (TEC) | kinase-Nluc reporter destabilization hit call (TYK2) | kinase-Nluc reporter destabilization hit call (ULK3) | kinase-Nluc reporter destabilization hit call (YES1) | kinase-Nluc reporter destabilization hit call (ZAK) | kinase-Nluc reporter destabilization hit call (ZAP70) | number of time points (ABL1) | number of time points (AKT1) | number of time points (ALK) | number of time points (ARAF) | number of time points (AURKA) | number of time points (AURKB) | number of time points (AURKC) | number of time points (BLK) | number of time points (BMX) | number of time points (BRAF) | number of time points (BRAF_V600E) | number of time points (BTK) |
| --- | --- | --- | --- | --- | --- | --- | --- | --- | --- | --- | --- | --- | --- | --- | --- | --- | --- | --- | --- | --- |
| C=CC(=O)N1CCC[C@@H](n2nc(-c3ccc(Oc4ccccc4)cc3)c3c(N)n[nH]c(=O)c32)C1 [BTK inhibitor 17] (10 µM) | inactive: 0 | inactive: 0 | inactive: 0 | inactive: 0 | inactive: 0 | inactive: 0 | inactive: 0 | inactive: 0 | 0 | 0 | 0 | 0 | 0 | 0 | 0 | 0 | 0 | 0 | 1 | 0 |
| CC1CN(CC2CCN(Cc3ccccc3)CC2)C(=O)N(c2cccc(C(=N)N)c2)C1 (stereo not given) (10 µM) | inactive: 0 | inactive: 0 | inactive: 0 | inactive: 0 | inactive: 0 | inactive: 0 | inactive: 0 | inactive: 0 | 0 | 0 | 0 | 0 | 0 | 0 | 0 | 0 | 0 | 0 | 0 | 0 |
| O=C(O)c1cc(N(Cc2ccccc2O)Cc2cc(O)ccc2O)ccc1O [Lavendustin A] (10 µM) | inactive: 0 | inactive: 0 | inactive: 0 | inactive: 0 | inactive: 0 | inactive: 0 | inactive: 0 | inactive: 0 | 0 | 0 | 2 | 0 | 0 | 0 | 0 | 0 | 0 | 0 | 2 | 0 |
| C[C@@H](Nc1ncnc2[nH]c(-c3ccc(O)cc3)cc12)c1ccccc1 (2.5 µM) | inactive: 0 | inactive: 0 | inactive: 0 | inactive: 0 | inactive: 0 | inactive: 0 | inactive: 0 | inactive: 0 | 0 | 0 | 0 | 0 | 0 | 0 | 0 | 0 | 0 | 0 | 0 | 0 |
| Cc1cccc(COc2cccc(/C=C3\C(=O)NN(c4ccccc4)C3=O)c2)c1 (10 µM) | inactive: 0 | inactive: 0 | inactive: 0 | inactive: 0 | inactive: 0 | inactive: 0 | inactive: 0 | inactive: 0 | 0 | 0 | 0 | 0 | 0 | 0 | 0 | 0 | 0 | 0 | 0 | 0 |
| C=C1C(=O)[C@@]23[C@H](O)C[C@@H]4C(C)(C)C(=O)CC[C@@]4(C)[C@@H]2CC[C@@H]1[C@H]3O [Glaucocalyxin A] (2.5 µM) | inactive: 0 | inactive: 0 | inactive: 0 | inactive: 0 | inactive: 0 | inactive: 0 | inactive: 0 | inactive: 0 | 0 | 0 | 1 | 0 | 0 | 0 | 0 | 0 | 1 | 0 | 2 | 0 |
| C[C@H]1O[C@@H](O[C@H]2CC[C@@]3(C)[C@@H](CC[C@]4(C)[C@@H]3C=C[C@]35OC[C@@]6(CCC(C)(C)C[C@H]63)[C@H](O)C[C@]54C)[C@]2(C)CO)[C@H](O)[C@@H](O[C@@H]2O[C@H](CO)[C@@H](O)[C@H](O)[C@H]2O)[C@H]1O [Saikosaponin D] (2.5 µM) | inactive: 0 | inactive: 0 | inactive: 0 | inactive: 0 | inactive: 0 | inactive: 0 | inactive: 0 | inactive: 0 | 0 | 0 | 0 | 0 | 0 | 0 | 0 | 0 | 0 | 0 | 0 | 0 |
| O=C(Nc1cc(Cl)cc2c1[nH]c1cnccc12)c1cccnc1 (10 µM) | inactive: 0 | inactive: 0 | inactive: 0 | inactive: 0 | inactive: 0 | inactive: 0 | inactive: 0 | inactive: 0 | 0 | 0 | 0 | 0 | 0 | 0 | 0 | 0 | 0 | 0 | 0 | 0 |

Full records from above. Values in the order: kinase-Nluc reporter destabilization hit call (STK38)	kinase-Nluc reporter destabilization hit call (SYK)	kinase-Nluc reporter destabilization hit call (TEC)	kinase-Nluc reporter destabilization hit call (TYK2)	kinase-Nluc reporter destabilization hit call (ULK3)	kinase-Nluc reporter destabilization hit call (YES1)	kinase-Nluc reporter destabilization hit call (ZAK)	kinase-Nluc reporter destabilization hit call (ZAP70)	number of time points (ABL1)	number of time points (AKT1)	number of time points (ALK)	number of time points (ARAF)	number of time points (AURKA)	number of time points (AURKB)	number of time points (AURKC)	number of time points (BLK)	number of time points (BMX)	number of time points (BRAF)	number of time points (BRAF_V600E)	number of time points (BTK)
O=C(Nc1cc(Cl)cc2c1[nH]c1cnccc12)c1cccnc1 (10 µM) is listed with inactive: 0	inactive: 0	inactive: 0	inactive: 0	inactive: 0	inactive: 0	inactive: 0	inactive: 0	0	0	0	0	0	0	0	0	0	0	0	0
C[C@H]1O[C@@H](O[C@H]2CC[C@@]3(C)[C@@H](CC[C@]4(C)[C@@H]3C=C[C@]35OC[C@@]6(CCC(C)(C)C[C@H]63)[C@H](O)C[C@]54C)[C@]2(C)CO)[C@H](O)[C@@H](O[C@@H]2O[C@H](CO)[C@@H](O)[C@H](O)[C@H]2O)[C@H]1O [Saikosaponin D] (2.5 µM) is listed with inactive: 0	inactive: 0	inactive: 0	inactive: 0	inactive: 0	inactive: 0	inactive: 0	inactive: 0	0	0	0	0	0	0	0	0	0	0	0	0
